Results: US20030009023A1
These are yes or no findings as the source states them, for the method shown. Binding calls can cover weak binding; strength is not graded here.

Target: HA-tagged mouse Wnt-3B (mouse)
Test: anti-HA immunoprecipitation of co-transfected COS7 lysates, immunoblot with N374-PEP

binding: binds
B1: bovine Frzb (protein)
chain: AACEPVRIPLCKSLPWNMTKMPNHLHHSTQANAILAIEQFEGLLGTHCSPDLLFFLCAMYAPICTIDFQHEPIKPCKSVCERARQGCEPILIKYRHSWPESLACEELPVYDRGVCISPEAIVTADGADFPMDSSNGNCRGASSERCKCKPVRATQKTYFRNNYNYVIRAKVKEIKTKCHDVTAVVEVKEILKASLVNIPRETVNLYTSSGCLCPPLNVNEEYLIMGYEDEERSRLLLVEGSIAEKWKDRLGKKVKRWDMKLRHLGLNTSDSSHSDSTQSQKPGRNSNSRQARN
